Here are results for 58 compounds from PubChem BioAssay AID2685 (National Center for Advancing Translational Sciences (NCATS), 2010).

The other results are listed elsewhere or left out. The main result of the screen is listed elsewhere. These columns were measured beside it and carry no call. Compounds called inactive in the main read-out are mostly missing here. Potencies come from curve fits of mixed quality, noted in brackets.

This test can be described thus: qHTS Assay for Lipid Storage Modulators in Drosophila S3 Cells.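 As to cell number change: cells counted by Cell Tracker Red CMTPX staining in the red channel.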 As to conditions: BODIPY lipid droplet fluorescence, 18-24 h; for cell number change: measured here: cell count max response, cells fed with added oleic acid. In outline: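 Drosophila S3 cells got compounds at several concentrations plus oleic acid (400 uM solution). Laser-scanning cytometry with 488 nm excitation read lipid droplets at 500-530 nm and cells at 575-640 nm. Percent activity was relative to 20 uM Triacsin C.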
In general terms: Quantitative high-throughput screening tests each substance at several concentrations.

[1] abbreviates: measured here: lipid fluorescence (Fed channel) AC50, cells fed with added oleic acid.
Where [2] appears, read: measured here: cell number channel AC50, cells fed with added oleic acid.

On to `Cc1ccc(S(=O)(=O)N/N=C/c2cccs2)cc1`, for which the cell number change was -16.1%. The AC50 – broadly, the midpoint of the concentration-response curve, whichever way the signal moves – under setting [1] is 0.58 µM [falling, full curve, poor fit].

As to `CCN(C(=O)COC(=O)CCc1c[nH]c2ccccc12)c1c(N)n(Cc2ccccc2)c(=O)[nH]c1=O`, the cell number change is -29.9%. Besides, the AC50 under setting [1] was 29.1 µM [falling, single point]. Consider `COc1ccc(S(=O)(=O)Nc2ncccc2C)c2ccccc12`, for which the cell number change was 13.1%. Also, the half-maximal activity concentration (AC50) under setting [1] is 1.46 µM [rising, full curve].

For the compound `C#CCOCCOCCOCCNc1nc(N2CCN(C(=O)[C@H](CCCCN)n3cc(CCCC)nn3)CC2)nc(N2CCN(C(=O)[C@H](CCCCN)n3cc(CCC(=O)O)nn3)CC2)n1`, the cell number change was -3.04%. Moreover, the AC50 under setting [1] was 0.461 µM [falling, single point]. On to `[O-]/[N+](=C\c1ccccc1)c1ccccc1`, for which the cell number change is -24%. Same read-out and setting: in the case of `COc1ccc(C(=O)C(CCC(CNC(C)(C)C)C(=O)c2ccc(OC)cc2)CNC(C)(C)C)cc1` (configuration not stated) it was -1.21%. As for `CCCCC(CC)C(=O)Oc1ccc(O)c(C(C)(C)C)c1` (configuration not stated), the AC50 under setting [1] is 23.1 µM [falling, partial curve].

Consider `Cc1ccc(CNC(=O)C(Cc2ccccc2)NS(=O)(=O)c2ccc(Br)s2)cc1` (configuration not stated), for which the cell number change amounted to 17.4%. In addition, the AC50 under setting [1] was 0.00517 µM [rising, full curve, poor fit].

Take `O=C(NCC(c1ccco1)N1CCOCC1)c1ccccc1` (configuration not stated): the cell number change was -3.1%. For the same compound, the AC50 under setting [1] was 29.1 µM [rising, partial curve, poor fit]. `CC(C)C[C@H]1CN=C(Nc2ccccc2)N1CC1CCC(C)CC1` (some centres not stated): the cell number change was -7.78%. Moreover, under setting [1], the AC50 is 3.26 µM [falling, single point]. With `CCOC(=O)c1nc2ccccc2c(C)c1C`, the cell number change was found to be 27.3%. Moreover, the AC50 under setting [1] was 11.6 µM [rising, partial curve]. `O=C(/C=C/c1ccccc1)c1cc(Br)ccc(=O)c1O`: the cell number change was -36%. Further, the AC50 under setting [2] was 20.6 µM [falling, single point]. Further, under setting [1], the AC50 was 20.6 µM [falling, partial curve]. In the case of `CC(C(=O)Nc1cccc([N+](=O)[O-])c1)N(c1ccccc1)S(C)(=O)=O` (configuration not stated), the cell number change is -9.47%. Further, the AC50 under setting [2] was 0.708 µM [falling, full curve]. For `c1ccc(CNc2ccc3ccccc3n2)nc1`, the cell number change was determined as 2.47%. For the same compound, under setting [2], the AC50 is 1.84 µM [falling, partial curve]. The AC50 under setting [1] was 1.03 µM [falling, full curve]. Consider `O=C(c1csc2ccccc12)N1CCN(c2ccccn2)CC1`, for which the cell number change was -29.2%. The AC50 under setting [1] is 6.51 µM [rising, single point]. Turning to `O=C(c1cccc2ccccc12)N1CCCCC1`, the AC50 under setting [1] was 29.1 µM [falling, single point]. For `COCCNc1nnc(SC(C)C(=O)Nc2ccc(-c3nc4ccc(C)cc4s3)cc2)s1` (configuration not stated), the cell number change was -53.4%. In addition, the AC50 under setting [2] was 11.6 µM [falling, partial curve]. With `CC(OC(=O)C1CCN(S(=O)(=O)c2ccc(Cl)cc2)CC1)C(=O)NC1CCCCC1C` (configuration not stated), the cell number change turned out to be 21.5%. In the case of `CCOC(=O)C1=C(COC(=O)CSc2ccc(Br)cc2)NC(=O)NC1C` (configuration not stated), the cell number change was -17.8%. Still for that read-out and setting: in the case of `CC1CC2(CC(C)(C(=O)CSc3nc4ccccc4s3)OC2=O)C(=O)O1` (configuration not stated) it was 16.7%. `COc1ccc(-n2c(=S)[nH]c3cc(C(=O)N4CCN(c5ccccc5)CC4)ccc3c2=O)cc1`: the cell number change was determined as 12.9%. Under setting [1], the AC50 was 29.1 µM [falling, single point]. As to `CC(=O)Nc1ccc(-c2sc(Nc3cccc4ccccc34)n[n+]2-c2ccccc2)cc1`, the cell number change is 33.2%. The AC50 under setting [2] is 20.6 µM [rising, partial curve].

Consider `Cc1cc(F)ccc1S(=O)(=O)NCC1CC2CCC1C2` (configuration not stated), for which the cell number change is -17.1%. The AC50 under setting [1] is 1.46 µM [falling, partial curve, poor fit]. For the compound `Cc1ccccc1NC(=O)C(=O)NCC1CCCN1S(=O)(=O)c1cccs1` (configuration not stated), the AC50 under setting [2] is 3.66 µM [rising, partial curve, poor fit]. Take `CN1/C(=C/C=C(C#N)C#N)C=Cc2ccccc21`: the cell number change is -46.1%. Moreover, the AC50 under setting [2] was 23.1 µM [falling, partial curve, poor fit]. In addition, the AC50 under setting [1] was 23.1 µM [falling, partial curve, poor fit]. As for `c1cncc(N=c2scc(-c3cccc4ccccc34)n2CCCn2ccnc2)c1`, the cell number change turned out to be 31.6%. Besides, the AC50 under setting [2] is 2.31 µM [rising, full curve]. In addition, the AC50 under setting [1] is 6.51 µM [rising, single point].

In the case of `COc1cc(/C=C/C(=O)OCC(=O)Nc2ccc(C)cc2[N+](=O)[O-])ccc1O`, the cell number change is -40.9%. Also, the AC50 under setting [2] is 7.31 µM [falling, partial curve]. As for `Cc1ccc(C2OC(=O)C=C2c2ccccc2)cc1` (configuration not stated), the cell number change was -24.4%. In the case of `CCOC(=O)CC(=O)Nc1ccn[nH]1`, the cell number change worked out at 24.2%. Further, the AC50 under setting [2] is 0.731 µM [falling, single point]. With `C=CCOC(=O)C1=C(C)NC(=O)NC1c1ccc(OCC)cc1` (configuration not stated), the cell number change was determined as 32.7%. Moreover, the AC50 under setting [2] was 16.4 µM [rising, single point]. As for `O=C(CN(C(=O)c1csnn1)c1cccc(C(F)(F)F)c1)NC1CCCC1`, the cell number change was determined as 26.9%. The AC50 under setting [1] is 0.116 µM [rising, single point].

For `CCc1cccc(NC(=O)CSc2nc3c(c(=O)[nH]2)CCCC3)c1`, the cell number change came to 14%. Also, the concentration at half-maximal activity (AC50) under setting [1] is 3.26 µM [rising, single point]. Take `Cc1ccc(S(=O)(=O)n2ccc(-c3cccc(OCc4c(F)cccc4Cl)c3)n2)cc1`: the cell number change turned out to be 43.4%. Besides, under setting [2], the AC50 was 16.4 µM [rising, partial curve, poor fit]. The AC50 under setting [1] is 11.6 µM [rising, partial curve]. For the compound `COc1ccc(CCNC(=O)CCCc2ccccc2)cc1`, the cell number change came out at 33.6%. In addition, under setting [2], the AC50 is 0.731 µM [rising, full curve, poor fit]. As for `O=C(NCC1CCN(C(=O)c2c(F)c(F)c(F)c(F)c2F)CC1)c1c(F)c(F)c(F)c(F)c1F`, the cell number change is -7.51%. Further, under setting [1], the AC50 is 0.146 µM [falling, partial curve, poor fit]. On to `CCN(Cc1nc2cc(Cl)ccc2c(=O)[nH]1)C(=O)c1cc(C2CC2)nn1-c1ccccc1`, for which the cell number change was -16.3%.

For `c1ccc(CCNc2ncnc3c2cnn3-c2ccccc2)cc1`, the cell number change is -20%. Besides, under setting [1], the half-maximal activity concentration (AC50) is 29.1 µM [falling, single point]. Regarding `CC(Sc1nc(-c2ccccc2)cc(C(F)(F)F)n1)C(=O)Nc1sc2c(c1C(N)=O)CCC2` (configuration not stated), the cell number change amounted to 8.73%. The AC50 under setting [1] was 0.116 µM [rising, full curve, poor fit]. For `COc1ccc(CC(C)NS(=O)(=O)c2ccc3c(c2)CCN3S(C)(=O)=O)cc1OC` (configuration not stated), the cell number change is -3.04%. The AC50 under setting [2] is 1.84 µM [rising, partial curve, poor fit]. `O=c1oc(-c2cccnc2)nc2ccccc12`: the cell number change is 6.23%. Further, under setting [1], the AC50 was 0.0517 µM [falling, full curve, poor fit]. With `COc1cccc(-c2nc(CS(=O)(=O)CC(=O)NC3CCCc4ccccc43)c(C)o2)c1` (configuration not stated), the cell number change is 9.22%. Besides, the AC50 under setting [1] was 25.9 µM [rising, single point]. With `Cc1noc(C)c1S(=O)(=O)N(CC(=O)NCc1ccc(F)cc1)c1ccc(C(C)C)cc1`, the cell number change is -0.472%. For the same compound, the AC50 under setting [1] is 29.1 µM [falling, single point]. Consider `CCOC(=O)C1CCCN(c2nc3ccccc3nc2NS(=O)(=O)c2ccc(C)cc2)C1` (configuration not stated), for which the cell number change worked out at 37.1%. Moreover, under setting [2], the AC50 was 13 µM [rising, partial curve, poor fit]. Under setting [1], the AC50 was 9.2 µM [rising, partial curve]. `Cc1cc(C)nc(SCC(=O)OCC(=O)N(C)c2c(N)n(Cc3ccccc3)c(=O)[nH]c2=O)n1`: the cell number change came to 9.41%. Moreover, the AC50 under setting [1] is 29.1 µM [rising, single point]. For the compound `N#CC1=C(N)C(C#N)(C#N)[C@H](c2ccncc2)[C@H]2CN(C(=O)OCc3ccccc3)CC=C12`, the cell number change was -24%. Besides, the AC50 under setting [1] is 8.2 µM [falling, partial curve]. `CC(OC(=O)C1CCCC1)C(=O)Nc1ccc(S(N)(=O)=O)cc1` (configuration not stated): the cell number change was -18.9%. For the compound `Cc1cc(Cl)cc(C)c1OCCCCN1CCOCC1`, the cell number change was -27.1%. Further, the AC50 under setting [1] was 0.326 µM [falling, partial curve, poor fit]. For `Cc1ccc(S(=O)(=O)N(C)c2ccc(NS(C)(=O)=O)cc2)cc1`, the cell number change was -0.718%. Besides, under setting [1], the AC50 was 29.1 µM [falling, single point]. Regarding `Cc1ccc(-c2nn(C(C)(C)C)c3ncnc(NS(=O)(=O)c4ccc([N+](=O)[O-])cc4)c23)cc1`, the cell number change is 6%. In addition, the AC50 under setting [1] was 0.116 µM [rising, full curve, poor fit]. Regarding `COc1ccc(CC(=O)Nc2ccc(S(=O)(=O)N3CCOCC3)cc2)cc1`, the cell number change is -30.3%. In addition, under setting [2], the AC50 is 5.8 µM [falling, partial curve, poor fit]. For the same compound, the AC50 under setting [1] was 0.00517 µM [falling, full curve, poor fit].

For `CCCN(CCC)C(=O)c1ccc2c(=O)n(Cc3ccco3)c(=S)[nH]c2c1`, the cell number change was -7.57%. Under setting [2], the AC50 was 0.0146 µM [rising, full curve]. In addition, the AC50 under setting [1] was 0.731 µM [rising, partial curve, poor fit]. Consider `CCc1ccc(/C=C2\SC(=S)N(CCCC(=O)Nc3ccc(C(=O)O)cc3)C2=O)cc1`, for which the cell number change is -20.1%. Besides, the AC50 under setting [1] is 29.1 µM [falling, single point]. Regarding `CC(=O)N1CCCN(C(=O)c2ccc3nc(Cc4ccccc4F)oc3c2)CC1`, the cell number change stood at 26.1%. In addition, the AC50 under setting [1] was 29.1 µM [rising, single point]. Consider `CN(C)S(=O)(=O)N1CCN(C(=O)N(c2ccccc2)c2ccccc2)CC1`, for which the AC50 under setting [1] is 0.184 µM [rising, full curve, poor fit]. Take `C=CCNC(=O)COc1cc(C)ccc1C`: the cell number change came out at 1.72%. The AC50 under setting [1] is 0.082 µM [falling, full curve, poor fit]. As for `CCc1ccccc1NC(=O)CSc1nnc(CCNC(=O)OC(C)(C)C)o1`, the cell number change amounted to 16%. Further, the AC50 under setting [1] was 29.1 µM [rising, single point]. As to `COC(=O)c1ccc(C2NC(=S)N(c3ccccc3)C(C)=C2C(=O)Nc2ccccc2OC)cc1` (configuration not stated), the AC50 reads like this: under setting [2], 0.0259 µM [rising, full curve, poor fit]; under setting [1], 1.64 µM [rising, partial curve].

On to `CC1C(=O)Nc2ccccc2N1C(=O)c1ccc(F)cc1F` (configuration not stated), for which the cell number change came to 6.31%. Also, under setting [1], the AC50 is 20.6 µM [falling, single point].
